Some of these results come from one statement about several compounds together.
Key:
[1] = tested on: Ctenocephalides felis (Cat Flea); experiment: Method A: screening method to test systemicity against Ctenocephalides felis (artificial dog test, treated bovine blood); format: in vivo; settings: test concentration of 5 ppm or less in bovine blood; 10 adults; assessment at 24 and 48 hours
[2] = tested on: Diabrotica undecimpunctata (Southern Corn Rootworm); experiment: Method B: Diabrotica undecimpunctata (Southern Corn Rootworm) screen, eggs on filter paper with sprouted maize seed; format: in vivo; settings: test concentration of 10 ppm; assessed 6 days after application

SMILES: CCSCCCN(C)c1c(S(=O)(=O)C(F)(F)F)c(C#N)nn1-c1c(Cl)cc(C(F)(F)F)cc1Cl [Compound 2-14, 1-(2,6-dichloro-4-trifluoromethylphenyl)-3-cyano-5-[N-(3-ethylthiopropyl)-N-methylamino]-4-trifluoromethylsulfonylpyrazole]
- control of Ctenocephalides felis [1]: at least 90%

SMILES: [O-][S+](C1CCSC1)C1CCSC1 (centres unmarked) [Compound 1-37, 3-tetrahydrothienyl sulfoxide]
- control of Ctenocephalides felis [1]: at least 90%

SMILES: CCSCCCNc1c(S(=O)(=O)C(F)(F)F)c(C#N)nn1-c1c(Cl)cc(C(F)(F)F)cc1Cl [Compound 1-14, 1-(2,6-dichloro-4-trifluoromethylphenyl)-3-cyano-5-(3-ethylthiopropylamino)-4-trifluoromethylsulfonylpyrazole]
- control of Ctenocephalides felis [1]: at least 90%

SMILES: O=S(=O)(C1CCSC1)C1CCSC1 (centres unmarked) [Compound 1-38, 3-tetrahydrothienyl sulfone]
- control of Ctenocephalides felis [1]: at least 90%
- control of Diabrotica undecimpunctata (percentage of dead eggs and/or larvae in comparison to untreated control) [2]: at least 90%

Source: patent publication US7517877B2, “5-substituted-alkylaminopyrazole derivatives as pesticides” (Merial Limited, priority 2002, dated 2009)
